Some of these results come from one statement about several compounds together. At least one structure is not confirmed: it was looked up by name or label, or the drawing left a doubt.
Target: T1, PDZ-domain of the protein AF6 (Homo sapiens, UniProt P55196)
T1 construct: The ubiquitarily 15N marked PDZ-domains of the proteins AF6; made in house
T1 sequence (P55196 1007-1093 limits assumed): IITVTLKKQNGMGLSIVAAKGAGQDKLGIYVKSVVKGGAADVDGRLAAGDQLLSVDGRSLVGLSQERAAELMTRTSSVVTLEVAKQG
Assay: 15N-HSQC NMR binding assay (chemical shift comparison with and without test ligand)
Conditions: 8 to 10-fold molar excess of test ligand, 50 μM protein

Row | SMILES | binding to the PDZ-domain of the protein AF6 (binding / non-binding) (listed as compound 39) | binding to the PDZ-domain of the protein AF6 (binding / non-binding) (listed as compound 40)
1 | CN(C)CCN=C1NC(=O)C(=Cc2ccc(C(F)(F)F)cc2)S1 [Compound 39] | do not bind | –
2 | O=C1NC(=NCCCc2ccccc2)SC1=Cc1ccc(C(F)(F)F)cc1 [Compound 40] | – | do not bind

— patent publication US20090204336A1, “PDZ-Domain Modulators” (Forschungsverbund Berlin e. V., priority 2005, published 2009)
